Data reported in the supplement of paper PMC5949888.
± gives the standard deviation of the averaged measurements. Most values lie at the floor of the assay. Slopes are relative: functional sequences can read slightly below zero.

The substances below were run on Saccharomyces cerevisiae PS128 hsf1 delta, HSF1(1-493) fusion (assay: growth estimate (transactivation domain function in HSF1 fusion, heat-shock survival) (a.u. (slope of normalised read count over time)); higher = stronger growth at 37°C, i.e. more transactivation activity). Settings: library: random library.

| Substance | growth estimate |
| --- | --- |
| GRYRRSSGRNNQPFSRSH | < -0.25 |
| CATSAGGRSRSIQKIVGQGL | < -0.25 |
| LMARMATNYRVMS | < -0.25 |
| VVIDHRNGHTRRHRIRECGV | < -0.25 |
| LARPCIG | < -0.25 |
| EGGAAA | < -0.25 |
| GMGSSTVKRVPSLQRPAKVP | < -0.25 |
| PNLSNCPIVSVPCQITATSK | < -0.25 |
| DCRRAALLLGNLRARTRVRR | < -0.25 |
| QLT | < -0.25 |
| TVNDHSLTFIAFAIGQIYEC | < -0.25 |
| GGTMGYGYMSKSATASPQPL | < -0.25 |
| TARRIRNHGGGRRLGISVPT | < -0.25 |
| GLGHVEHYIKGQGLLSVMRK | < -0.25 |
| TSVVG | < -0.25 |
| NMVSRDLAPF | < -0.25 |
| WPNRS | < -0.25 |
| SGGSYSNGRGMGVSEEPNGP | < -0.253 |
| LQSCVWGLVGSGAGCSHTPS | < -0.25 |
| LGSGYDVAGLQSEIRERRPG | < -0.25 |
| IGRWSFATKGATGSNKMLIT | < -0.25 |
| TIQECPISPRSCTTLCAARG | < -0.25 |
| QSVRE | < -0.25 |
| VISEAIRTVLAEHLKNKW | < -0.25 |
| ESKDMFATFMRATEVRGKRT | < -0.25 |

| Substance | growth estimate |
| --- | --- |
| SELEEVVVFGRFRG | < -0.25 |
| INSAQGTIS | < -0.25 |
| ESGLSARGERSPGLPFKGGL | -0.245 |
| TPGCVSIASGIRSFEGERRH | < -0.25 |
| SAAGEA | -0.246 |
| GVG | -0.169 ± 0.12 |
| KVARGTDIRPHFIQVGMFTV | -0.199 |
| LIRRRLICAYTGPKT | < -0.25 |
| LPRTI | < -0.25 |
| ARCSSDMG | < -0.25 |
| SSKHCIDTVSAGLNRLVITR | < -0.25 |
| HYPVIKVFLWQGVCSRKC | < -0.25 |
| RVVRAGWRRTGWRNQ | < -0.25 |
| SVPLYNWVVVW | -0.203 |
| QEAKARRGLAFAKSARAQCG | < -0.25 |
| GIG | < -0.25 |
| RNRVVGHCPTALEVPVLNPL | < -0.25 |
| SGLFYTWM | -0.0009 |
| NAE | -0.245 |
| LVLRAYSVLDSRGMAGAQSS | < -0.25 |
| SSSLGGLCNQAM | < -0.25 |
| GNPSARRHILLIKSFRSLSK | < -0.25 |
| QTSDW | < -0.25 |
| AVGC | < -0.25 |
| VPSDHA | -0.245 |

| Substance | growth estimate |
| --- | --- |
| VKLSPSR | -0.245 |
| QRELVTAPIKECAKALTACP | < -0.25 |
| VANHWAYHLGWYWCGGSGAS | < -0.25 |
| FLGSLRYSRSKYGTPSVEQA | < -0.25 |
| SCAPANFRGRRLSSWRLIAT | -0.25 |
| REGGSRRGNV | < -0.25 |
| FLLKSAEPHRRKTAACSPPS | < -0.25 |
| WESLCERYYVVH | < -0.25 |
| HELKMIAVEVGSSFHLT | < -0.25 |
| VRHEIKAHSGGSATPLLEQV | < -0.25 |
| VISTVH | < -0.25 |
| LGRK | < -0.25 |
| LGSFSPKQDLFAMLPFRTYN | < -0.25 |
| TSSLARVGRLEILS | < -0.25 |
| IWSVEGSGSGDVREA | < -0.25 |
| ADGPITLEVMTIPQ | < -0.25 |
| LCCGDSRRRRHIQVDRSESR | < -0.25 |
| GPRCRETGCHGIR | < -0.25 |
| HRPQYNGRKFREGHRWTYRR | < -0.25 |
| AFERPRSTRVGW | < -0.25 |
| YNTRQLCT | < -0.25 |
| LASVI | < -0.25 |
| VARS | < -0.25 |
| DIRRCLRNN | < -0.25 |
| RSYPRVGNGHARWLSKGGPN | < -0.25 |

| Substance | growth estimate |
| --- | --- |
| RAMLSTFREKARADDWVARM | < -0.25 |
| EKVARRYTMGNPR | < -0.25 |
| WVHPSGFGRRMGDSKVVRRS | < -0.25 |
| TIARTGAERGPGDRTLDLDS | < -0.25 |
| STSPQGGLRPQYNGHQH | < -0.25 |
| RRGPPVLSSREDPGTTVEAV | < -0.25 |
| GDFFTSLMVSCRSGSPSRGN | < -0.25 |
| GPMPRGWWEAGQFRASEPVR | < -0.25 |
| AINKMT | < -0.25 |
| VTRGTWMQRLNVIMWKSLSQ | < -0.25 |
| FVSKKLIRCRS | < -0.25 |
| QHPAHPAFTFLVQCGWVRPG | < -0.25 |
| RCPDEFHVGLLVVSEPNSES | -0.238 |
| HCLHDKFLCALVRQLG | < -0.25 |
| GSLTLARHSILVGICSRHPR | < -0.25 |
| ADTRVSGVFRGSASVLLVWP | < -0.25 |
| CRTGPCHVYSSSSVSFCHAH | < -0.25 |
| SVGTRYAGESRTAHHKCSFS | < -0.25 |
| REAAFTACAIMSFTFPYVPR | < -0.25 |
| RNGKLFRKCYDIVC | < -0.25 |
| LFHCKPRIDNRGHWCH | < -0.25 |
| VWTREEVQRVLEIRSS | < -0.25 |
| GIKVCWSPFQRILTNRRLLT | -0.241 |
| CRSGSVSQRQ | < -0.25 |
| IVGMRLLKHCYSWRRTMSLP | < -0.25 |

Four entries drawn at random from those above:

| Substance | growth estimate |
| --- | --- |
| CRTGPCHVYSSSSVSFCHAH | < -0.25 |
| VTRGTWMQRLNVIMWKSLSQ | < -0.25 |
| RNGKLFRKCYDIVC | < -0.25 |
| GPMPRGWWEAGQFRASEPVR | < -0.25 |

Additional records follow.

| Substance | growth estimate |
| --- | --- |
| SCTEITLSRYLGNKQGSWSK | < -0.25 |
| AILTLSVAL | < -0.25 |
| RLPGEKRKVYELLPN | < -0.25 |
| LWRYSPCASGILFLIPTGFA | < -0.25 |
| RLQRDWP | < -0.25 |
| RLLGASFI | < -0.25 |
| YNLGP | < -0.25 |
| SIIRNVRRLRSVR | < -0.25 |
| ANQGGLYPVRPVRR | < -0.25 |
| AFQNAQ | < -0.25 |
| IYLSALELVG | < -0.25 |
| PHQITCCSDQHSSFT | < -0.25 |
| YSGHVMWT | < -0.25 |
| ASSSGPE | < -0.25 |
| RRVSVRHQSTVLASNEPLRS | < -0.25 |
| GTKTPSTPLFWFIRLFHLLG | < -0.25 |
| LLRVNFRRCLYGFLYGDSTG | -0.208 |
| RIRNLGLLGAQ | < -0.25 |
| LTHVNNMEVLASSR | < -0.25 |
| SVSP | < -0.25 |
| VRRTRDGNVAALKTFALREI | < -0.25 |
| LTTS | < -0.25 |
| KVYARVFLFQLGFREASIYG | -0.246 |
| IRRCGPDAYYRLSVPRTC | < -0.25 |
| RPVSKVGARRRSRWLVMRSA | < -0.25 |

| Substance | growth estimate |
| --- | --- |
| SVLVYISVFIKGRNPFSARV | < -0.25 |
| GYERMKIGS | < -0.25 |
| SHGNTSIWKCREKFPPRTSF | < -0.25 |
| SNPVHFELIRCSTKFSGCAG | < -0.25 |
| CGTIKASGTVRASYGIPSVR | < -0.25 |
| LLTSSWEGKVGY | < -0.25 |
| CRGERRHRVVINVWIMVSPA | < -0.25 |
| ALHHGGSQKWRHEGTDGSFP | < -0.25 |
| VLLRLATSARHASTKSNVGR | < -0.25 |
| GYGELLRPPRGDAVITHLVV | < -0.25 |
| GCTCGTCEVPRGGIYDKEAG | < -0.25 |
| GPFCPSSVC | < -0.25 |
| ICLRTGFARTGVV | < -0.25 |
| GTICV | < -0.25 |
| IKCVMTSIVA | < -0.25 |
| CRGVNSCETHLFRQRSKALG | < -0.25 |
| TMSAPGEQGIDVTGSLRSCH | -0.25 |
| MVVGRSGRTNNPSKARLCPL | < -0.25 |
| IRFLLVVYLAETESMRESEE | < -0.25 |
| SKLQSYGTPVWVLHHLCT | < -0.25 |
| RSVPSYFGSRV | < -0.25 |
| RLQPRYHPSLNRNPV | < -0.25 |
| SRI | < -0.25 |
| VALPMKSCPL | < -0.25 |
| LDVIPTRFET | < -0.25 |

| Substance | growth estimate |
| --- | --- |
| GWLIDYQYLTHFT | < -0.25 |
| QSRLRVTTQEFCSQLRTGPD | < -0.25 |
| NNRMEHIAPQTRGHPEDTTA | < -0.25 |
| GWSKC | < -0.25 |
| CRGC | < -0.25 |
| IATPP | < -0.25 |
| YIARTLGSGVTTYCDPH | < -0.25 |
| GDIVNGNSKNRRAYSMCPRR | < -0.25 |
| GSDRLAGARVYVLRGEGDGN | < -0.25 |
| VRGVSSCQVEESARAGVT | < -0.25 |
| LEQRCWNSQME | < -0.25 |
| PAVGPPS | < -0.25 |
| LRVGFRDAPVGSKLVRGVVV | < -0.25 |
| YVAHVNSPTLVTSSQEGLSL | < -0.25 |
| PRHEERI | < -0.25 |
| TDYKHKLAGASARGSGRPAL | < -0.25 |
| YTARYISPSDSRPDAEERAV | < -0.25 |
| HSI | < -0.25 |
| VTFPSSIIGRAGHSPLGVSV | < -0.25 |
| LRSVGTCWRAGTR | < -0.25 |
| KNVSEWCHGGRRRNYHYLSA | < -0.25 |
| AVISDRKSATGFIISAKPPY | < -0.25 |
| VPSTNVMVNV | < -0.25 |
| KGVATVGDGLRAVGKQTVPP | < -0.25 |
| CAATSTMNPKFGLRQPDSRS | < -0.25 |

A different layout for some results above:
Substance	growth estimate
GWSKC	< -0.25
CRGC	< -0.25
VRGVSSCQVEESARAGVT	< -0.25
YVAHVNSPTLVTSSQEGLSL	< -0.25
HSI	< -0.25

(listing goes on)

| Substance | growth estimate |
| --- | --- |
| SSRLHR | < -0.25 |
| FGNA | < -0.25 |
| CNLVLSTGPNRLSPC | < -0.25 |
| PTAPSRVLIRRLIIACVGAS | < -0.25 |
| TAGCNSPLIPRETDWTLLGK | < -0.25 |
| TDLSMSRPRHSGWLPSWDRS | < -0.25 |
| YSDGFWFRRQGRATDSPTEF | < -0.25 |
| QIRN | < -0.25 |
| WLGRHVTAVQGKLFASPTGI | < -0.25 |
| IVRGPAEKGPYREVNVLVPP | < -0.25 |
| DSESADFHGQSGVYGIAVHR | < -0.25 |
| ERFSEELTLLTQRRH | < -0.25 |
| VMKPSAVCICIRLIRDYFVP | < -0.25 |
| KSGRDLYVAGIAKIASPCGR | < -0.25 |
| SFATVLPCPVLLQKFFLSRR | < -0.25 |
| LRGGFQYRQVSCLR | < -0.25 |
| RIRVSVF | < -0.25 |
| RLT | -0.2 |
| PWARWTQGFQRQRSSGP | < -0.25 |
| HSRKGRDLVGA | < -0.25 |
| TSCFNICLRAIL | < -0.25 |
| AYACEKVTSGIDDELSNTIG | < -0.25 |
| RSDQSIINLTGAYGSDGLLV | < -0.25 |
